No constants are given. Whether binding was seen depends on the method and setting. Binding seen in cells or lysates may run through a third protein. Here binding means that the protein was enriched with, or labelled near, the bait; the list need not be complete. Tags and fused reporters may be left off the sequences shown.
Assays:
[1] = biological target: T1, APEX2-ATOX1 fusion construct (3x Flag-APEX2-3x Myc-human ATOX1) (human) (UniProt O00244); assay: proximity labelling; APEX2-ATOX1 induced with doxycycline in C2C12 myoblasts, myocytes and myotubes; 2.5 mM biotin-phenol, 0.75 mM H2O2 for 1 min; streptavidin capture from RIPA lysates; label-free nanoLC-MS/MS; cells without biotin phenol as negative controls; three experiments per state
T1 sequence: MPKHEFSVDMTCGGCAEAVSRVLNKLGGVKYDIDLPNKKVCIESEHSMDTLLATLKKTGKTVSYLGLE

The chains behind the UniProt entries cited, without tags or fusion partners.
UniProt Q99020: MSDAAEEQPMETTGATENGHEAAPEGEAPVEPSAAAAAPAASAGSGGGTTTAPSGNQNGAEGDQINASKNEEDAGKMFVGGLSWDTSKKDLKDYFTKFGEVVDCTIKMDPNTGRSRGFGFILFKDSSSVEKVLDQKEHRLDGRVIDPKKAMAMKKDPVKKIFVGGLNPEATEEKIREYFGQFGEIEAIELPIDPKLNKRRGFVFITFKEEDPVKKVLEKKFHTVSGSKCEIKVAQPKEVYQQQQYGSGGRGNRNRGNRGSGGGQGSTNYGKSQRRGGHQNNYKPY
UniProt Q64430: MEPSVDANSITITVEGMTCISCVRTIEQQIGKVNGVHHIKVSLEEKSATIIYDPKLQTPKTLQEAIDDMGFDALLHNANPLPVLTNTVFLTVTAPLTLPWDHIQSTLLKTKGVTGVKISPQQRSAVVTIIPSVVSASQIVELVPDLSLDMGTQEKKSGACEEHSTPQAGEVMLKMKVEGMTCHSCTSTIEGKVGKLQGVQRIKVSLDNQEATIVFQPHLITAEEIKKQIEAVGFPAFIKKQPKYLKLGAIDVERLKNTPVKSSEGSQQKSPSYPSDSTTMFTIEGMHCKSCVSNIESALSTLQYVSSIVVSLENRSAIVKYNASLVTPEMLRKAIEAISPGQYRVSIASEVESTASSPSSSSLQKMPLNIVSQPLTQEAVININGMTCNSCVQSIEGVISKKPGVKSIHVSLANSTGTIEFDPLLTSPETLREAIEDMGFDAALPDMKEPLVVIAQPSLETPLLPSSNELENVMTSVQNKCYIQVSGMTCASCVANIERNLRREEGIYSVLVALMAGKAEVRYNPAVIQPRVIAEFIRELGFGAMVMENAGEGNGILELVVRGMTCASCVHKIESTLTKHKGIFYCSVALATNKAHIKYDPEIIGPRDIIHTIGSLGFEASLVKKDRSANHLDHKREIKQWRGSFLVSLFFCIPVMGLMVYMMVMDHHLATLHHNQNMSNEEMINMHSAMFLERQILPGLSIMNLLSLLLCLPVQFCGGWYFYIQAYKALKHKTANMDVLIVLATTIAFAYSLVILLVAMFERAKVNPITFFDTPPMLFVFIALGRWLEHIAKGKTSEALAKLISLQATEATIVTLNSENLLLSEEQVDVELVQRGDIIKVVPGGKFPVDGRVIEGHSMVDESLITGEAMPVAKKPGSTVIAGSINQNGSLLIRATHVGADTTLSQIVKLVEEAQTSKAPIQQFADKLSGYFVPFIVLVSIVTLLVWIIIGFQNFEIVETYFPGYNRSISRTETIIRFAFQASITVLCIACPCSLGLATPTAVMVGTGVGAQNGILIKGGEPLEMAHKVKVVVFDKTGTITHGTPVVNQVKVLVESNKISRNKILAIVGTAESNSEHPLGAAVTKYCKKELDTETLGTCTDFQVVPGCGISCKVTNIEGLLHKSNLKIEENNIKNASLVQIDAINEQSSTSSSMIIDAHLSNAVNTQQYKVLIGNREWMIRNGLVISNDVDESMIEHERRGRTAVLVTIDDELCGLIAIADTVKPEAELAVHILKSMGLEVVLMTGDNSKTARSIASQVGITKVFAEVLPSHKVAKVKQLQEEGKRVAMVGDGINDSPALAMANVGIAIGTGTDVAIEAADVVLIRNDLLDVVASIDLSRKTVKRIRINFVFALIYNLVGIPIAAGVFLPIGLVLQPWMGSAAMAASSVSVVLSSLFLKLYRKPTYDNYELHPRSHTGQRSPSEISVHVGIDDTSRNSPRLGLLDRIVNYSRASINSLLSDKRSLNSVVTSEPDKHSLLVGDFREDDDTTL
UniProt Q91VH2: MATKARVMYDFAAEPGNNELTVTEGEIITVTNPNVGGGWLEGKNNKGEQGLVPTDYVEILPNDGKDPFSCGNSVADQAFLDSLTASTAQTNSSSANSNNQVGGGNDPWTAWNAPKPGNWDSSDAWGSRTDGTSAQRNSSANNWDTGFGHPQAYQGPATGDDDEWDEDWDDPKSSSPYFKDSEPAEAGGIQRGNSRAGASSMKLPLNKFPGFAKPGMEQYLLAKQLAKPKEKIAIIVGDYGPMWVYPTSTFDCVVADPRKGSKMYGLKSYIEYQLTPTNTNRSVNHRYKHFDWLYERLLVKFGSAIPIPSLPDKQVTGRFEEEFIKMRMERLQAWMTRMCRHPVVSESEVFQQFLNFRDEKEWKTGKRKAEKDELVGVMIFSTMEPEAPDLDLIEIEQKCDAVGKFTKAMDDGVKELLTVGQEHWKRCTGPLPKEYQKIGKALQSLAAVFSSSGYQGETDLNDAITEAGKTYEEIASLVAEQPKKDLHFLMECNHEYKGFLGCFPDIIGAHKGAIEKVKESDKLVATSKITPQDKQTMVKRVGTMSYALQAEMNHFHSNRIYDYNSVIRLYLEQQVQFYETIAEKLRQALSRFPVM

[2] = biological target: T1, APEX2-ATOX1 fusion construct (3x Flag-APEX2-3x Myc-human ATOX1) (human); assay: proximity labelling; APEX2-ATOX1 in C2C12 myoblasts, myocytes and myotubes; streptavidin bead eluates eluted with urea containing buffer without boiling, probed by immunoblot; cells without biotin phenol as negative controls
[3] = biological target: T1, APEX2-ATOX1 fusion construct (3x Flag-APEX2-3x Myc-human ATOX1) (human); assay: proximity labelling; APEX2-ATOX1 in C2C12 myoblasts, myocytes and myotubes; biotin-phenol and H2O2 labelling; streptavidin bead eluates probed by immunoblot; cells without biotin phenol as negative controls
[4] = biological target: T1, APEX2-ATOX1 fusion construct (3x Flag-APEX2-3x Myc-human ATOX1) (human); assay: proximity labelling; APEX2-ATOX1 induced with doxycycline in C2C12 myoblasts, myocytes and myotubes; 2.5 mM biotin-phenol, 0.75 mM H2O2 for 1 min; streptavidin capture from RIPA lysates; label-free nanoLC-MS/MS; cells without biotin phenol as negative controls; three experiments per state; remark: listed apart in the source

Q: With HNRNPAB (from UniProt Q99020 1-285) as the molecule, how does the binding [1] read?
A: The binding was “binds”.

Q: Which binding [2] does the source give for ATP7A (from UniProt Q64430 1-1491) here?
A: The binding was “binds”.

Q: With SNX9 (from UniProt Q91VH2 1-595) as the molecule, how does the binding [1] read?
A: Its binding is “binds”.

B1: cysteine rich intestinal protein 2 (CRIP2) (protein, UniProt Q9DCT8 1-208)
chain: MASKCPKCDKTVYFAEKVSSLGKDWHKFCLKCERCNKTLTPGGHAEHDGKPFCHKPCYATLFGPKGVNIGGAGSYIYEKPQTEAPQVTGPIEVPVVRTEERKTSGPPKGPSKASSVTTFTGEPNMCPRCNKRVYFAEKVTSLGKDWHRPCLRCERCSKTLTPGGHAEHDGQPYCHKPCYGILFGPKGVNTGAVGSYIYDKDPEGTVQP
Q: Which results are given for B1?
A: binding [3]: binds; binding [4]: binds

B2: copper chaperone for SOD1 (CCS) (protein, UniProt Q9WU84 1-274)
chain: MASKSGDGGTVCALEFAVQMSCQSCVDAVHKTLKGVAGVQNVDVQLENQMVLVQTTLPSQEVQALLESTGRQAVLKGMGSSQLQNLGAAVAILEGCGSIQGVVRFLQLSSELCLIEGTIDGLEPGLHGLHVHQYGDLTRDCNSCGDHFNPDGASHGGPQDTDRHRGDLGNVRAEAGGRATFRIEDKQLKVWDVIGRSLVIDEGEDDLGRGGHPLSKITGNSGKRLACGIIARSAGLFQNPKQICSCDGLTIWEERGRPIAGQGRKDSAQPPAHL
Q: How did the binding [3] turn out when B2 was run?
A: The binding was “binds”.

B3: ERBB receptor feedback inhibitor 1 (ERRFI1) (protein, UniProt Q99JZ7 1-461)
chain: MSTAGVAAQDIRVPLKTGFLHNGQALGNMKSCWGSHSEFENNFLNIDPITMAYNLNSPAQEHLTTVGCAARSAPGSGHFFAECGPSPRSSLPPLVISPSESSGQREEDQVMCGFKKLSVNGVCTSTPPLTPIKSCPSPFPCAALCDRGSRPLPPLPISEDLCVDEADSEVELLTTSSDTDLLLEDSAPSDFKYDAPGRRSFRGCGQINYAYFDSPTVSVADLSCASDQNRVVPDPNPPPPQSHRRLRRSHSGPAGSFNKPAIRISSCTHRASPSSDEDKPEVPPRVPIPPRPAKPDYRRWSAEVTSNTYSDEDRPPKVPPREPLSRSNSRTPSPKSLPSYLNGVMPPTQSFAPDPKYVSSKALQRQSSEGSANKVPCILPIIENGKKVSSTHYYLLPERPPYLDKYEKYFKEAEETNPSTQIQPLPAACGMASATEKLASRMKIDMGSHGKRKHLSYVVSP
Q: How did the binding [4] turn out when B3 was run?
A: The binding was “binds”.

B4: transforming growth factor beta regulator 1 (TBRG1) (protein, UniProt Q3UB74 1-406)
chain: MSVLSGLASEPRTPLSSKARMKRLPRKSQNEKYRLKYLRLRRAAKATVFENASICDEIARLEEKFLKAKEERRYLLKKLLQIHALTEGEPQAAAPSHSSSLPLPYGVTSSVGTMQGAGPSTGAEEPFAKKSKKEKKEKGKENSKLEVLKKTSKKKKMEGGARKLVRPIALDPSGQPVFPIGLGGLTVYSLGEIITNRPGFHDENAIYPVGYCSTRVYASMKCPDQKCLYTCQIKDGGVQPQFEIVPEDDPQNTIVGSSADACYEELLRAISATTGKLMPNPLSCGADFFGFSHPTIHNLIQSCPEAQNCVNYQWVKFDACKPRKGQLSQELPENDATMSLEAFQTQTFDDDHDDSILPGSLDLPELQHEAFVSSYQPEFLTHEPLVDTDLQHLKSPSQCSPIQSSD
Q: Which binding [4] does the source give for B4 here?
A: The binding was “binds”.

B5: SCAMP3 (protein, UniProt O35609 1-349)
chain: MAQSRDTGNPFPDSGELDNPFQDPAVIQHRPSQQYATLDVYNPFENREPPPAYEPPAPAPAPLPPPSAPSVQSSRKLSPTEPRNYGSYSTQASAAAATAELLKKQEELNRKAEELDRRERELQHVALGGAGTRQNNWPPLPSFCPVKPCFFQDISMEIPQEFQKTVSTMYYLWMCSTLALLLNFFACLARFCVDTGSGSGFGLSMLWLLLFTPCSFVCWYRPMYKAFRSDSSFNFFVFFFIFFVQDVFFVLQAIGIPGWGFSGWVTALVVVGSKPAVAVLMLLVALLFTGIAVLGIVMLKRIHSLYRQTGASFQKAQQEFAAGVFSNPAVRTAAANAAAGAAENAFRAP
Q: Which binding [4] does the source give for B5 here?
A: Its binding is “binds”.

B6: SYNCRIP/HNRNPQ (protein, UniProt Q7TMK9 1-623)
chain: MATEHVNGNGTEEPMDTTSAVIHSENFQTLLDAGLPQKVAEKLDEIYVAGLVAHSDLDERAIEALKEFNEDGALAVLQQFKDSDLSHVQNKSAFLCGVMKTYRQREKQGTKVADSSKGPDEAKIKALLERTGYTLDVTTGQRKYGGPPPDSVYSGQQPSVGTEIFVGKIPRDLFEDELVPLFEKAGPIWDLRLMMDPLTGLNRGYAFVTFCTKEAAQEAVKLYNNHEIRSGKHIGVCISVANNRLFVGSIPKSKTKEQILEEFSKVTEGLTDVILYHQPDDKKKNRGFCFLEYEDHKTAAQARRRLMSGKVKVWGNVGTVEWADPIEDPDPEVMAKVKVLFVRNLANTVTEEILEKSFSQFGKLERVKKLKDYAFIHFDERDGAVKAMEEMNGKDLEGENIEIVFAKPPDQKRKERKAQRQAAKNQMYDDYYYYGPPHMPPPTRGRGRGGRGGYGYPPDYYGYEDYYDYYGYDYHNYRGGYEDPYYGYEDFQVGARGRGGRGARGAAPSRGRGAAPPRGRAGYSQRGGPGSARGVRGARGGAQQQRGRGVRGARGGRGGNVGGKRKADGYNQPDTKRRQTNNQNWGSQPIAQQPLQGGDHSGNYGYKSENQEFYQDTFGQQWK
Q: B6 was tested. Which binding [4] did it give?
A: Its binding is “binds”.

Reference: publication doi:10.1101/2025.07.08.663731
